The results in this text go back to US5908787A, “Total protein detection method” (Bayer Corporation, priority 1997, dated 1999).

This data set has as its system human serum albumin (HSA). Nature of the data set: Pyrogallol red/molybdate test strip with secondary dye: visual resolution between protein levels. The settings on record: strip mix pH 1.5, visual rating 0-3; for Reagent Response to Protein Expressed as Visual Resolution Between Levels (mg/dL) 0-15: HSA 0-15 mg/dL in urine; for Reagent Response to Protein Expressed as Visual Resolution Between Levels (mg/dL) 15-50: HSA 15-50 mg/dL in urine; for Reagent Response to Protein Expressed as Visual Resolution Between Levels (mg/dL) 50-150: HSA 50-150 mg/dL in urine; for Reagent Response to Protein Expressed as Visual Resolution Between Levels (mg/dL) 150-450: HSA 150-450 mg/dL in urine.

Each structure is given as a SMILES string.

As for `O=S1(=O)OC(c2cc(Br)c(O)c(Br)c2)(c2cc(Br)c(O)c(Br)c2)c2ccccc21` [Secondary dye 1, Bromophenol blue], the “Reagent Response to Protein Expressed as Visual Resolution Between Levels (mg/dL) 0-15” value (“Reagent Response … (mg/dL) 0-15” for short) worked out at 2, the “Reagent Response to Protein Expressed as Visual Resolution Between Levels (mg/dL) 15-50” value (from here on “Reagent Response … (mg/dL) 15-50”) was found to be 2, the “Reagent Response to Protein Expressed as Visual Resolution Between Levels (mg/dL) 50-150” value (shortened to “Reagent Response … (mg/dL) 50-150”) came out at 1 and the “Reagent Response to Protein Expressed as Visual Resolution Between Levels (mg/dL) 150-450” value (“Reagent Response … (mg/dL) 150-450” for short) is 0.

Regarding `O=S1(=O)OC(c2cc(Br)c(O)c(Br)c2)(c2cc(Br)c(O)c(Br)c2)c2c(Br)c(Br)c(Br)c(Br)c21` [Secondary dye 2, Tetrabromophenol blue], the “Reagent Response … (mg/dL) 0-15” value was 2, the “Reagent Response … (mg/dL) 15-50” value is 2, the “Reagent Response … (mg/dL) 50-150” value turned out to be 1 and the “Reagent Response … (mg/dL) 150-450” value was 0.

`O=S1(=O)OC(c2cc(Cl)c(O)c(Br)c2)(c2cc(Cl)c(O)c(Br)c2)c2ccccc21` [Secondary dye 3, Bromochlorophenol blue]: the “Reagent Response … (mg/dL) 0-15” value is listed as 2, the “Reagent Response … (mg/dL) 15-50” value was determined as 2, the “Reagent Response … (mg/dL) 50-150” value came out at 1 and the “Reagent Response … (mg/dL) 150-450” value was found to be 0.

With `O=S1(=O)OC(c2cc(I)c(O)c(I)c2)(c2cc(I)c(O)c(I)c2)c2ccccc21` [Secondary dye 4, Tetraiodophenolsulfonephthalein], the “Reagent Response … (mg/dL) 0-15” value worked out at 2, the “Reagent Response … (mg/dL) 15-50” value came out at 2, the “Reagent Response … (mg/dL) 50-150” value was found to be 1 and the “Reagent Response … (mg/dL) 150-450” value came out at 0.

Turning to `O=[N+]([O-])c1cc(C2(c3cc(I)c(O)c([N+](=O)[O-])c3)OS(=O)(=O)c3c(Br)c(Br)c(Br)c(Br)c32)cc(I)c1O` [Secondary dye 5, 5',5"-Dinitro-3',3"-Diiodo-3,4,5,6-Tetrabromophenolsulfonephthalein], the “Reagent Response … (mg/dL) 0-15” value was 3, the “Reagent Response … (mg/dL) 15-50” value was found to be 2, the “Reagent Response … (mg/dL) 50-150” value was determined as 1 and the “Reagent Response … (mg/dL) 150-450” value is 0.

`O=[N+]([O-])c1cc(C2(c3cc(Br)c(O)c([N+](=O)[O-])c3)OS(=O)(=O)c3c(Br)c(Br)c(Br)c(Br)c32)cc(Br)c1O` [Secondary dye 6, 5',5"-Dinitro-3',3",3,4,5,6-hexabromophenolsulfonephthalein]: the “Reagent Response … (mg/dL) 0-15” value is reported as 3, the “Reagent Response … (mg/dL) 15-50” value turned out to be 3, the “Reagent Response … (mg/dL) 50-150” value came to 2 and the “Reagent Response … (mg/dL) 150-450” value is listed as 0.

As to `O=[N+]([O-])c1cc(C2(c3cc(Br)c(O)c(I)c3)OS(=O)(=O)c3c(Br)c(Br)c(Br)c(Br)c32)cc(Br)c1O` (stereo not shown) [Secondary dye 7, 5'-Nitro-5''-Iodo-3',3"3,4,5,6-hexabromophenolsulfonephthalein], the “Reagent Response … (mg/dL) 0-15” value is given as 3, the “Reagent Response … (mg/dL) 15-50” value is reported as 2, the “Reagent Response … (mg/dL) 50-150” value is given as 3 and the “Reagent Response … (mg/dL) 150-450” value is recorded as 2.
